Measured values as given in US9011882B2, “Dimethylarginine dimethylaminohydrolase inhibitors and methods of use thereof” (The Board of Trustees of the Leland Stanford Junior …, priority 2012, dated 2015).

The chains behind the UniProt entries cited, without tags or fusion partners.
UniProt O94760, whole entry: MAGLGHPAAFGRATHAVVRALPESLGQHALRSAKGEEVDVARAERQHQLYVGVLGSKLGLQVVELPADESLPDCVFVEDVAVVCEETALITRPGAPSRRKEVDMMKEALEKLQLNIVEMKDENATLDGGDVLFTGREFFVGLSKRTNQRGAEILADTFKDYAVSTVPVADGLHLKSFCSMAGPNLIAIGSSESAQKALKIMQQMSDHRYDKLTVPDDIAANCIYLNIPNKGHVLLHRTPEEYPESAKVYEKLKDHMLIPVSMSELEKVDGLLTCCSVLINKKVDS

Target: recombinant human DDAH1 (rhDDAH1) (Homo sapiens (Human), UniProt O94760)
Assay: Colorimetric L-citrulline assay of DDAH activity (ADMA substrate; high throughput screen and orthogonal validation)
Type: biochemical
Conditions: high throughput screen of library copies (BMF-6, BMF-7, BMF-8, MicroSource, LOPAC), dose-dependent inhibition

## COc1ccc2[nH]c([S+]([O-])Cc3ncc(C)c(OC)c3C)nc2c1 (stereo not shown) [Omeprazole]
  IC50: 61.4 µM, 20 µM, 85 µM

Not every entry of the source has a single result; some have several. They are shown here; other results are not. An entry can have further records. Values that stand side by side do not match, cause unknown; they may come from other doses, times, organisms or constructs than stated.
